{"source": "paper PMC11728000", "about": "“Antitumor Activity and Multi-Target Mechanism of Phenolic Schiff Bases Bearing Methanesulfonamide Fragments: Cell Cycle Analysis and a Molecular Modeling Study” (International Journal of Molecular Sciences, 2024)", "origin": "cited, not measured here", "parameters_in_all_cases": "method as in https://dtp.cancer.gov/dtpstandard/dwindex/index.jsp", "details_in_all_cases": "ref https://dtp.cancer.gov/dtpstandard/dwindex/index.jsp; cited from earlier work", "key": {"PC-3": {"system": "PC-3"}, "MCF-7": {"system": "MCF-7"}, "SW-620": {"system": "SW-620"}, "EKVX": {"system": "EKVX"}, "SNB-75": {"system": "SNB-75"}}}
{"smiles": "COc1cc2ncnc(Nc3ccc(F)c(Cl)c3)c2cc1OCCCN1CCOCC1", "note": "[Gefitinib, gefitinib]", "values": [{"measurement": "GI50", "setting": "PC-3", "result": 5.01, "unit": "µM"}, {"measurement": "GI50", "setting": "MCF-7", "result": 5.01, "unit": "µM"}, {"measurement": "GI50", "setting": "SW-620", "result": 5.01, "unit": "µM"}, {"measurement": "GI50", "setting": "EKVX", "result": 0.0501, "unit": "µM"}, {"measurement": "GI50", "setting": "SNB-75", "result": 5.01, "unit": "µM"}]}
